These are yes or no findings as the source states them, for the method shown. In cells and extracts the contact can be indirect. Binding can be weak; no strength is given.

By UniProt entry, the sequences of proteins in these tests, tags left out. Where a name states a change or a piece, a line headed by the entry shows the natural chain unless it says otherwise.
UniProt P53355: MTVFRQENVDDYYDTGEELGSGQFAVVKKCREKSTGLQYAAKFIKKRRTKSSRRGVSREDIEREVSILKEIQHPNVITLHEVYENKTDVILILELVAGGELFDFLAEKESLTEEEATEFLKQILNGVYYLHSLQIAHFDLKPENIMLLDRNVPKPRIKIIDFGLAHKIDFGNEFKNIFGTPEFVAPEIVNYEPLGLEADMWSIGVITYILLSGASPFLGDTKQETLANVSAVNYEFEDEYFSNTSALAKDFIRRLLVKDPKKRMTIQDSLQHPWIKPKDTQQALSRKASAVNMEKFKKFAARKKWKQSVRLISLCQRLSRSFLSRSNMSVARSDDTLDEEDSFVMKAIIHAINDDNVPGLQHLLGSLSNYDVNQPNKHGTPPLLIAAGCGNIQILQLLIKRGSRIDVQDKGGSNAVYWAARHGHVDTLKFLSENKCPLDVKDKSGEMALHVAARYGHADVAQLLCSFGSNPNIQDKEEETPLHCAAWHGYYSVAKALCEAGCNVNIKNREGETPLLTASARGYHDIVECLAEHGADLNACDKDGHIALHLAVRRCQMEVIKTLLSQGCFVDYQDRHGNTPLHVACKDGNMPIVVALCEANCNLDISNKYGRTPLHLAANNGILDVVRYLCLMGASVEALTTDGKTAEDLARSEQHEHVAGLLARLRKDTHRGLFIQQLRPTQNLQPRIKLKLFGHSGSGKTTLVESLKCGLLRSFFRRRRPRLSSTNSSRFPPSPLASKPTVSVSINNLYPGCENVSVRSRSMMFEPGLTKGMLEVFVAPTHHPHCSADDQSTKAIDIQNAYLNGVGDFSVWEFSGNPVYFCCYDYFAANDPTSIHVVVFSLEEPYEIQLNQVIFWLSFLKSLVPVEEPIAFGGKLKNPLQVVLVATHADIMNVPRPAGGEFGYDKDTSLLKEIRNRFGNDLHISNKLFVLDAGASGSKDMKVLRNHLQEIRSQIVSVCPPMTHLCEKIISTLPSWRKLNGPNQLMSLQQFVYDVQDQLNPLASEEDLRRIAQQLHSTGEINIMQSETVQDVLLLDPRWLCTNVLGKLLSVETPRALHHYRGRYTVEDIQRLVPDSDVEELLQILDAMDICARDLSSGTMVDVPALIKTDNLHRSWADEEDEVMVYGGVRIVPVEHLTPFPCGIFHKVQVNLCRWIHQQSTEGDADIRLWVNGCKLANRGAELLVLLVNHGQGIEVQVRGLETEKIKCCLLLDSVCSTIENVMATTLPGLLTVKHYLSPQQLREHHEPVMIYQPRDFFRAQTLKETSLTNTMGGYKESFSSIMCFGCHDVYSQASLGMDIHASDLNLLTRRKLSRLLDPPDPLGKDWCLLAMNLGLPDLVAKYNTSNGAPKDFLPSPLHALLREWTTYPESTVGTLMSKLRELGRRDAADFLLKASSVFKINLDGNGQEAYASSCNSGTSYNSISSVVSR
UniProt Q16611: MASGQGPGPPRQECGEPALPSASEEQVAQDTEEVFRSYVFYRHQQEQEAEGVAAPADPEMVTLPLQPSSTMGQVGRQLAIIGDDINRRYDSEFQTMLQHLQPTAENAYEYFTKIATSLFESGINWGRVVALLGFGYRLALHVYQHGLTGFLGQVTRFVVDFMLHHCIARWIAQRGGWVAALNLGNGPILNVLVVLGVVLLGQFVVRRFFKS

In this assay the target is DAPk1 kinase domain mutant K42A of Fig. 3c (UniProt P53355). The experiment in a line: co-IP; 293T cells transfected with GFP-tagged DAPk1 deletion constructs and infected with HA-Ad-Bik; immunoprecipitation with anti-HA or anti-GFP antibodies; blots for GFP, HA, activated Bak (Fig. 3c).

For “Bak (endogenous) (from UniProt Q16611 1-211)”, the binding entry is listed as “binds”.

The values are drawn from PMC5630627.
